Results as given in patent publication US6025179.

System: SnaBI methylase (M.SnaBI) (Sphaerotilus natans)
Experiment: activity in cells
Details: in vivo methylation completely protects pSnaBI-2 against SnaBI digestion; protein in cells; only the site is given

Sequence: GTACGTAC (double strand) [SnaBI linker in pSnaBI-2 (two sites in pUC19)]
- activity on this sequence: active

Construct, isoform or probe ends are uncertain for at least one entry.
